According to patent publication US20200222474A1, “COMPOSITIONS AND METHODS FOR INCREASING PHYTOCHEMICAL BIOAVAILABLITY AND BIOACTIVITY” (North Carolina State University, priority 2017, published 2020):
Further values from the same series stand in other lists.

Tested on: L. acidophilus NCFM
Experiment: RNA-seq transcriptional analysis of L. acidophilus NCFM growing on plant glycosides
Type: cell-based, Lactobacillus acidophilus
[1] = LBA1974 Pyruvate oxidase, COG EH
[2] = gene LBA0802 (Hypothetical protein)
[3] = gene LBA0863 (Hypothetical protein)
[4] = gene LBA0878 (Hypothetical protein)
[5] = gene LBA0888 (Hypothetical protein)
[6] = gene LBA0987 (Hypothetical protein)
[7] = gene LBA1019 (Mucus binding protein)
[8] = gene LBA1020 (Mucus binding protein)
[9] = gene LBA1227 (Hypothetical protein)
[10] = gene LBA1370 (Putative bacteriophage-related protein)
[11] = gene LBA1409 (Hypothetical protein LBA1409)
[12] = gene LBA1460 (Mucus binding protein precursor)
[13] = gene LBA1461 (Putative regulator)
[14] = gene LBA1539 (Hypothetical protein)
[15] = gene LBA1608 (Hypothetical protein)
[16] = gene LBA1612 (Fibrinogen-binding protein)
[17] = gene LBA1652 (Mucus binding protein precursor Mub)
[18] = gene LBA1655 (Hypothetical protein)
[19] = gene LBA1686 (Hypothetical protein)
[20] = gene LBA1693 (Hypothetical protein)
[21] = gene LBA1694 (Hypothetical protein)
[22] = gene LBA1709 (Mucus binding protein precursor Mub)
[23] = gene LBA1784 (Hypothetical protein)
[24] = gene LBA1786 (Hypothetical protein)
[25] = gene LBA1791 (Hypothetical protein)
[26] = gene LBA1792 (Hypothetical protein)
[27] = gene LBA1794 (Gassericin K7 B accessory protein)
[28] = gene LBA1797 (Hypothetical protein)
[29] = gene LBA1801 (Hypothetical protein)
[30] = gene LBA1802 (Hypothetical protein)
[31] = gene LBA1803 (Hypothetical protein.)
[32] = gene LBA1804 (Hypothetical protein)
[33] = gene LBA1805 (Hypothetical protein)
[34] = gene without printed locus tag, last line of Table 5 (Hypothetical protein)

Structure (SMILES): N#C[C@H](O[C@@H]1O[C@H](CO[C@@H]2O[C@H](CO)[C@@H](O)[C@H](O)[C@H]2O)[C@@H](O)[C@H](O)[C@H]1O)c1ccccc1 [Amygdalin]
- Log2 differential normalized TPM ratio compared to glucose [1]: 5.5
- Log2 differential normalized TPM ratio compared to lactose [1]: 3.1
- Transcripts per million (rpm) [1]: 3124.6 rpm
- Log2 differential normalized TPM ratio compared to glucose [2]: 2.3
- Log2 differential normalized TPM ratio compared to lactose [2]: 2
- Transcripts per million (rpm) [2]: 133.2 rpm
- Log2 differential normalized TPM ratio compared to glucose [3]: 0.4
- Log2 differential normalized TPM ratio compared to lactose [3]: −0.4
- Transcripts per million (rpm) [3]: 53.7 rpm
- Log2 differential normalized TPM ratio compared to glucose [4]: 2
- Log2 differential normalized TPM ratio compared to lactose [4]: 0.9
- Transcripts per million (rpm) [4]: 2.5 rpm
- Log2 differential normalized TPM ratio compared to glucose [5]: 2.5
- Log2 differential normalized TPM ratio compared to lactose [5]: 1.4
- Transcripts per million (rpm) [5]: 138.9 rpm
- Log2 differential normalized TPM ratio compared to glucose [6]: 2.8
- Log2 differential normalized TPM ratio compared to lactose [6]: −0.2
- Transcripts per million (rpm) [6]: 3.7 rpm
- Log2 differential normalized TPM ratio compared to glucose [7]: 3.1
- Log2 differential normalized TPM ratio compared to lactose [7]: 2.1
- Transcripts per million (rpm) [7]: 91.3 rpm
- Log2 differential normalized TPM ratio compared to glucose [8]: −1.2
- Log2 differential normalized TPM ratio compared to lactose [8]: −1.3
- Transcripts per million (rpm) [8]: 49.4 rpm
- Log2 differential normalized TPM ratio compared to glucose [9]: 3.2
- Log2 differential normalized TPM ratio compared to lactose [9]: 2.7
- Transcripts per million (rpm) [9]: 523.3 rpm
- Log2 differential normalized TPM ratio compared to glucose [10]: 2
- Log2 differential normalized TPM ratio compared to lactose [10]: 1.5
- Transcripts per million (rpm) [10]: 123 rpm
- Log2 differential normalized TPM ratio compared to glucose [11]: 2.3
- Log2 differential normalized TPM ratio compared to lactose [11]: 1.7
- Transcripts per million (rpm) [11]: 18.3 rpm
- Log2 differential normalized TPM ratio compared to glucose [12]: −0.9
- Log2 differential normalized TPM ratio compared to lactose [12]: −5.1
- Transcripts per million (rpm) [12]: 4.5 rpm
- Log2 differential normalized TPM ratio compared to glucose [13]: −1
- Log2 differential normalized TPM ratio compared to lactose [13]: −5.9
- Transcripts per million (rpm) [13]: 2.3 rpm
- Log2 differential normalized TPM ratio compared to glucose [14]: 1.3
- Log2 differential normalized TPM ratio compared to lactose [14]: −1.5
- Transcripts per million (rpm) [14]: 47.1 rpm
- Log2 differential normalized TPM ratio compared to glucose [15]: 3
- Log2 differential normalized TPM ratio compared to lactose [15]: 2.3
- Transcripts per million (rpm) [15]: 139.8 rpm
- Log2 differential normalized TPM ratio compared to glucose (gene LBA1611 (Surface protein)): 1.1
- Log2 differential normalized TPM ratio compared to lactose (gene LBA1611 (Surface protein)): 1.6
- Transcripts per million (rpm) (gene LBA1611 (Surface protein)): 290.9 rpm
- Log2 differential normalized TPM ratio compared to glucose [16]: 1.3
- Log2 differential normalized TPM ratio compared to lactose [16]: 1.2
- Transcripts per million (rpm) [16]: 270.7 rpm
- Log2 differential normalized TPM ratio compared to glucose (gene LBA1633 (Surface protein)): 2.3
- Log2 differential normalized TPM ratio compared to lactose (gene LBA1633 (Surface protein)): 1.1
- Transcripts per million (rpm) (gene LBA1633 (Surface protein)): 29.1 rpm
- Log2 differential normalized TPM ratio compared to glucose [17]: 3
- Log2 differential normalized TPM ratio compared to lactose [17]: 2.4
- Transcripts per million (rpm) [17]: 73.8 rpm
- Log2 differential normalized TPM ratio compared to glucose [18]: 2.1
- Log2 differential normalized TPM ratio compared to lactose [18]: 1.8
- Transcripts per million (rpm) [18]: 14.5 rpm
- Log2 differential normalized TPM ratio compared to glucose [19]: 2.5
- Log2 differential normalized TPM ratio compared to lactose [19]: 2.8
- Transcripts per million (rpm) [19]: 826.6 rpm
- Log2 differential normalized TPM ratio compared to glucose [20]: −0.6
- Log2 differential normalized TPM ratio compared to lactose [20]: −1.6
- Transcripts per million (rpm) [20]: 57.4 rpm
- Log2 differential normalized TPM ratio compared to glucose [21]: −1.3
- Log2 differential normalized TPM ratio compared to lactose [21]: −2.3
- Transcripts per million (rpm) [21]: 28.8 rpm
- Log2 differential normalized TPM ratio compared to glucose [22]: 4.5
- Log2 differential normalized TPM ratio compared to lactose [22]: 4
- Transcripts per million (rpm) [22]: 48.2 rpm
- Log2 differential normalized TPM ratio compared to glucose [23]: 1.6
- Log2 differential normalized TPM ratio compared to lactose [23]: −0.3
- Transcripts per million (rpm) [23]: 107.9 rpm
- Log2 differential normalized TPM ratio compared to glucose [24]: 1.8
- Log2 differential normalized TPM ratio compared to lactose [24]: −0.4
- Transcripts per million (rpm) [24]: 69.4 rpm
- Log2 differential normalized TPM ratio compared to glucose [25]: 1.6
- Log2 differential normalized TPM ratio compared to lactose [25]: −0.6
- Transcripts per million (rpm) [25]: 44.6 rpm
- Log2 differential normalized TPM ratio compared to glucose [26]: 1.6
- Log2 differential normalized TPM ratio compared to lactose [26]: −0.7
- Transcripts per million (rpm) [26]: 36.6 rpm
- Log2 differential normalized TPM ratio compared to glucose [27]: 2.2
- Log2 differential normalized TPM ratio compared to lactose [27]: −0.1
- Transcripts per million (rpm) [27]: 54.4 rpm
- Log2 differential normalized TPM ratio compared to glucose [28]: 4.7
- Log2 differential normalized TPM ratio compared to lactose [28]: −0.1
- Transcripts per million (rpm) [28]: 2913.5 rpm
- Log2 differential normalized TPM ratio compared to glucose [29]: 3.1
- Log2 differential normalized TPM ratio compared to lactose [29]: 0.7
- Transcripts per million (rpm) [29]: 30.2 rpm
- Log2 differential normalized TPM ratio compared to glucose [30]: 3.2
- Log2 differential normalized TPM ratio compared to lactose [30]: 0.6
- Transcripts per million (rpm) [30]: 55.9 rpm
- Log2 differential normalized TPM ratio compared to glucose [31]: 2.9
- Log2 differential normalized TPM ratio compared to lactose [31]: −0.1
- Transcripts per million (rpm) [31]: 81.4 rpm
- Log2 differential normalized TPM ratio compared to glucose [32]: 3.4
- Log2 differential normalized TPM ratio compared to lactose [32]: −0.3
- Transcripts per million (rpm) [32]: 162.2 rpm
- Log2 differential normalized TPM ratio compared to glucose [33]: 3.7
- Log2 differential normalized TPM ratio compared to lactose [33]: −0.2
- Transcripts per million (rpm) [33]: 319.7 rpm
- Log2 differential normalized TPM ratio compared to glucose [34]: 1.2
- Log2 differential normalized TPM ratio compared to lactose [34]: 1
- Transcripts per million (rpm) [34]: 35.4 rpm
